PubChem BioAssay AID1259254 – NCATS | 2017

- Screen: 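Gene knock-downs that lead to re-replication, shown by excess G2 DNA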 (primary screen)
- System: human HCT116 colorectal cancer cells
- Reagents: single siRNA against human genes
- Duration: 3 days
- Measurement: 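Nuclei stained with Hoechst and imaged; cell-cycle phase assigned by DNA content; G2 share scaled per plate, non-targeting siRNA 0%, GMNN siRNA 100%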
- Scale: G2 robust z-score: higher = more G2 cells, more excess DNA replication
- Hit rule: 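Active siRNAs have a G2 robust z of 5 or more median absolute deviations over the median, which in these data means about 38% or higher of GMNN control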
The deposit covers about 59,000 reagents; below is a random part of them. About 1,550 of all reagents (2.6%) were called active. 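G2 share is only a proxy for re-replication; each gene was hit by three separate siRNAs, and active genes were retested.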 The numbers tell different reagents against one gene apart. Further read-outs or replicates are left out here. No sequences are given here. Not stated in the record: the amount of reagent.

ADAMTS12 #1 | G2 robust z-score = 4.17; Call = inactive
ADAMTS12 #2 | G2 robust z-score = 1.84; Call = inactive
ADAMTS12 #3 | G2 robust z-score = -0.94; Call = inactive
PHB1 #1 | G2 robust z-score = 3.53; Call = inactive
PHB1 #2 | G2 robust z-score = 1.15; Call = inactive
PHB1 #3 | G2 robust z-score = -0.695; Call = inactive
ZNF890P #1 | G2 robust z-score = 2.14; Call = inactive
ZNF890P #2 | G2 robust z-score = 2.55; Call = inactive
ZNF890P #3 | G2 robust z-score = 0.336; Call = inactive
KRTAP11-1 #1 | G2 robust z-score = 4.82; Call = inactive
KRTAP11-1 #2 | G2 robust z-score = 1.26; Call = inactive
KRTAP11-1 #3 | G2 robust z-score = -0.0609; Call = inactive
CWF19L2 #1 | G2 robust z-score = 1.26; Call = inactive
CWF19L2 #2 | G2 robust z-score = -0.116; Call = inactive
CWF19L2 #3 | G2 robust z-score = -0.729; Call = inactive
RBFA #1 | G2 robust z-score = -0.736; Call = inactive
RBFA #2 | G2 robust z-score = 2.29; Call = inactive
RBFA #3 | G2 robust z-score = 0.595; Call = inactive

Targets above whose gene name starts with A or a:
ADAMTS12 #1 | G2 robust z-score = 4.17; Call = inactive
ADAMTS12 #2 | G2 robust z-score = 1.84; Call = inactive
ADAMTS12 #3 | G2 robust z-score = -0.94; Call = inactive
